Some entries share one result that the patent states for a list of compounds.
Columns and labels:
Phytophthora infestans = assay type: in vivo; settings: 500 ppm of active ingredient; preventive, tomato plants; evaluated 7 days after inoculation
Plasmopara viticola = experiment: Plasmopara test (grapevines)/protective; assay type: in vivo; settings: 10 ppm of active ingredient, protective, evaluated 6 days after inoculation

Structure (SMILES)	efficacy (Phytophthora infestans) [%]	efficacy (Plasmopara viticola) [%]
C#CCCOC(=O)Nc1cccc(CON=C(c2cccc(F)c2)n2nnnc2C)n1 [Example 23]	≥ 70	≥ 70
CC#CCOC(=O)Nc1cccc(CON=C(c2cccc(F)c2)n2nnnc2C)n1 [Example 24]	≥ 70	≥ 70
C=CCCOC(=O)Nc1cccc(CON=C(c2cccc(F)c2)n2nnnc2C)n1 [Example 27]	≥ 70	≥ 70
Cn1nnnc1C(=NOCc1cccc(NC(=O)CCc2ccc(Cl)s2)n1)c1ccccc1 [Example 49]	≥ 70	≥ 70
Cn1nnnc1C(=NOCc1cccc(NC(=O)C2CCCCO2)n1)c1ccccc1 (stereo not shown) [Example 50]	≥ 70	≥ 70
Cn1nnnc1C(=NOCc1cccc(NC(=O)CCC2CCCC2)n1)c1ccccc1 [Example 51]	≥ 70	≥ 70
Cn1nnnc1C(=NOCc1cccc(NC(=O)CCC2CCCCC2)n1)c1ccccc1 [Example 52]	≥ 70	≥ 70
Cn1nnnc1C(=NOCc1cccc(NC(=O)CCOc2ccccc2)n1)c1ccccc1 [Example 53]	≥ 70	≥ 70
Cn1nnnc1C(=NOCc1cccc(NC(=O)C2C(C=C(Cl)Cl)C2(C)C)n1)c1ccccc1 (stereo not shown) [Example 54]	≥ 70	≥ 70
C#CCCCC(=O)Nc1cccc(CON=C(c2ccccc2)c2nnnn2C)n1 [Example 55]	≥ 70	≥ 70
C=CCOC(=O)Nc1cccc(CON=C(c2ccccc2)c2nnnn2C)n1 [Example 56]	≥ 70	≥ 70
C=CCCOC(=O)Nc1cccc(CON=C(c2ccccc2)c2nnnn2C)n1 [Example 57]	≥ 70	≥ 70
CC#CCOC(=O)Nc1cccc(CON=C(c2ccccc2)c2nnnn2C)n1 [Example 58]	≥ 70	≥ 70
C#CCOC(=O)Nc1cccc(CON=C(c2ccccc2)c2nnnn2C)n1 [Example 59]	≥ 70	≥ 70
CCCc1ccc(C(=O)Nc2cccc(CON=C(c3ccccc3)c3nnnn3C)n2)cc1 [Example 60]	≥ 70	≥ 70
Cn1nnnc1C(=NOCc1cccc(NC(=O)C2CC2c2ccccc2)n1)c1ccccc1 (stereo not shown) [Example 61]	≥ 70	≥ 70
Cn1nnnc1C(=NOCc1cccc(NC(=O)CC2CC3CCC2C3)n1)c1ccccc1 (stereo not shown) [Example 62]	≥ 70	≥ 70
Cn1nnnc1C(=NOCc1cccc(NC(=O)CCCC2CCCCC2)n1)c1ccccc1 [Example 63]	≥ 70	≥ 70
Cn1nnnc1C(=NOCc1cccc(NC(=O)COc2ccccc2)n1)c1ccccc1 [Example 64]	≥ 70	≥ 70
Cn1nnnc1C(=NOCc1cccc(NC(=O)CC2CCCCC2)n1)c1ccccc1 [Example 65]	≥ 70	≥ 70
Cn1nnnc1/C(=N\OCc1cccc(NC(=O)OCCCCCl)n1)c1ccccc1 [Example 67, 4-chlorobutyl {6-[({[(Z)-(1-methyl-1H-tetrazol-5-yl)(phenyl)methylene]amino}oxy)methyl]pyridin-2-yl}carbamate]	≥ 70	≥ 70
Cc1nnnn1C(=NOCc1cccc(NC(=O)c2cccc(Cl)c2)n1)c1ccccc1 [Example 114]	≥ 70	≥ 70
Cc1nnnn1C(=NOCc1cccc(NC(=O)C(C)Oc2ccccc2)n1)c1ccccc1 (stereo not shown) [Example 115]	≥ 70	≥ 70
Cc1nnnn1C(=NOCc1cccc(NC(=O)c2cccc(F)c2)n1)c1ccccc1 [Example 116]	≥ 70	≥ 70

Structure (SMILES)	efficacy (Phytophthora infestans) [%]	efficacy (Plasmopara viticola) [%]
Cc1nnnn1C(=NOCc1cccc(NC(=O)CC2CC3CCC2C3)n1)c1ccccc1 (stereo not shown) [Example 135]	≥ 70	≥ 70
Cn1nnnc1C(=NOCc1csc(NC(=O)c2cccc(F)c2)n1)c1cccc(F)c1 [Example 160]	≥ 70	≥ 70
Cn1nnnc1C(=NOCc1csc(NC(=O)OCCOCc2ccccc2)n1)c1ccccc1 [Example 202]	≥ 70	≥ 70
Cn1nnnc1C(=NOCc1csc(NC(=O)CC2CCCCC2)n1)c1ccccc1 [Example 205]	≥ 70	≥ 70
Cn1nnnc1C(=NOCc1csc(NC(=O)CCC2CCCCC2)n1)c1ccccc1 [Example 206]	≥ 70	≥ 70
Cn1nnnc1C(=NOCc1csc(NC(=O)CCC2CCCC2)n1)c1ccccc1 [Example 207]	≥ 70	≥ 70
Cn1nnnc1C(=NOCc1cccc(NC(=O)Cc2cccs2)n1)c1ccccc1 [Example 209]	≥ 70	≥ 70
Cn1nnnc1C(=NOCc1cccc(NC(=O)c2cccc(Cl)c2)n1)c1ccccc1 [Example 212]	≥ 70	≥ 70
Cn1nnnc1C(=NOCc1cccc(NC(=O)c2cccc(F)c2)n1)c1ccccc1 [Example 213]	≥ 70	≥ 70
Cn1nnnc1C(=NOCc1cccc(NC(=O)c2cccs2)n1)c1ccccc1 [Example 214]	≥ 70	≥ 70
CCc1ccc(C(=O)Nc2cccc(CON=C(c3ccccc3)c3nnnn3C)n2)cc1 [Example 216]	≥ 70	≥ 70
Cn1nnnc1C(=NOCc1cccc(NC(=O)CSCc2ccccc2)n1)c1ccccc1 [Example 218]	≥ 70	≥ 70
Cn1nnnc1C(=NOCc1cccc(NC(=O)CCC2CCCO2)n1)c1ccccc1 (stereo not shown) [Example 220]	≥ 70	≥ 70
Cn1nnnc1C(=NOCc1cccc(NC(=O)CCCc2ccsc2)n1)c1ccccc1 [Example 221]	≥ 70	≥ 70
Cc1nnnn1C(=NOCc1csc(NC(=O)CC2CCCCC2)n1)c1ccccc1 [Example 223]	≥ 70	≥ 70
Cc1nnnn1C(=NOCc1csc(NC(=O)COc2ccccc2)n1)c1ccccc1 [Example 226]	≥ 70	≥ 70
Cc1nnnn1C(=NOCc1csc(NC(=O)OCCOCc2ccccc2)n1)c1ccccc1 [Example 230]	≥ 70	≥ 70
Cn1nnnc1C(=NOCc1csc(NC(=O)Cc2ccsc2)n1)c1cccc(F)c1 [Example 233]	≥ 70	≥ 70
C#CCCCC(=O)Nc1nc(CON=C(c2cccc(F)c2)c2nnnn2C)cs1 [Example 234]	≥ 70	≥ 70
Cn1nnnc1C(=NOCc1csc(NC(=O)CCC2CCCC2)n1)c1cccc(F)c1 [Example 237]	≥ 70	≥ 70
Cn1nnnc1C(=NOCc1csc(NC(=O)COc2ccccc2)n1)c1cccc(F)c1 [Example 238]	≥ 70	≥ 70
C#CCCOC(=O)Nc1nc(CON=C(c2ccccc2)c2nnnn2C)cs1 [Example 376]	≥ 70	≥ 70
C#CCCOC(=O)Nc1cccc(CON=C(c2ccccc2)c2nnnn2C)n1 [Example 377]	≥ 70	≥ 70

Source: patent US8614217B2 (priority 2008, dated 2013)
